Results published in the supplement of paper PMC12823440, “Inhibitors supercharge kinase turnover through native proteolytic circuits” (Nature, 2025).
Counter-ions that a name gives are not always drawn. The list shows a part of the results. Hit calls seldom repeat between salt and free forms of one compound.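 Kinases, fused to nanoluciferase, were expressed in K562 cells; luminescence was measured every 4 h from 2 to 18 h as percent of control (DMSO = 100%, positive control = 0%). A time point is decreased if signal falls significantly (2 sigma). Hits were called by the authors by a rule that is not shown; the count of time points alone does not decide it.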

Amino acid sequences for entries named in this document (tags omitted).
UniProt Q9NYA1, whole entry: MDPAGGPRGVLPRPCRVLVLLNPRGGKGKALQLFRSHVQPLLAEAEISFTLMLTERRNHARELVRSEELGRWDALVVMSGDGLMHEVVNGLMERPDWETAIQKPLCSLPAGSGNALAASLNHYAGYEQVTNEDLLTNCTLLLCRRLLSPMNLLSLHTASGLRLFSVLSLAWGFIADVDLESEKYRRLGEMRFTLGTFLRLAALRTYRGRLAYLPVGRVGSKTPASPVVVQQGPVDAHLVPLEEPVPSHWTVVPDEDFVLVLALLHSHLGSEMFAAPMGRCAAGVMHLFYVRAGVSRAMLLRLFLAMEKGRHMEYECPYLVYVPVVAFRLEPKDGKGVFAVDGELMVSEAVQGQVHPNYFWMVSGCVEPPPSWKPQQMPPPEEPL

biological target: SPHK1 (UniProt Q9NYA1); test: number of time points (of 5) at which kinase-Nluc abundance scored as decreased, DMSO-normalised (count); higher = more persistent destabilization; settings: K562; 2-18 h

SMILES	number of time points
CNc1nc(Nc2ccc(C(=O)N3CCOCC3)cc2OC)ncc1Cl (2.5 µM)	0
CCN(CC)c1ccc2cc(-c3nc4cc(C)ccc4o3)c(=O)oc2c1 (10 µM)	0
COc1ccccc1C(=O)/C=C/c1ccccc1C(=O)O (10 µM)	0
CC(=O)N1CCC(c2cc(-c3ccc(NC(=O)c4cccn(-c5ccc(F)cc5)c4=O)cc3F)c3c(N)ncnn23)CC1 (0.5 µM)	0
O[C@@H]1CO[C@H]2[C@@H]1OC[C@H]2Oc1nc2nc(-c3ccc(-c4ccccc4)cc3)c(Cl)cc2[nH]1 (10 µM)	0

biological target: SRC (UniProt P12931); test: as above; settings: K562; 2-18 h

SMILES	number of time points
C[C@@H]1COCCN1c1nc(-c2cnc(N)cc2C(F)F)nc(N2[C@H](C)COC[C@@H]2C)n1 (2.5 µM)	0
O=C(O)c1cc(=O)c2c(OCC(O)COc3cccc4oc(C(=O)O)cc(=O)c34)cccc2o1 [Cromolyn (sodium)] (10 µM)	0
CCc1ccc(OCC(=O)Nc2ccc(F)c([N+](=O)[O-])c2)cc1 (10 µM)	0
CC(C)S(=O)(=O)c1ccc2nccc(Nc3ccc4scnc4c3)c2c1 (10 µM)	0
CN1CC[C@@H](c2c(O)cc(O)c3c(=O)cc(-c4ccc(C(F)(F)F)cc4Cl)oc23)[C@@H]1CO [Voruciclib (hydrochloride)] (10 µM)	0
CC(C)=CC(=O)O[C@H]1Cc2cc3ccc(=O)oc3cc2OC1(C)C [Decursin] (10 µM)	0
CC(C)C[C@@H](C(=O)Nc1ccn(C[C@@H](O)CO)n1)N1CC(Oc2ccccc2Cl)=CC1=O [Dorzagliatin] (10 µM)	0
CC(C)N1CCN(c2ccc(Nc3ncc4cc5n(c4n3)C3(CCCCC3)CNC5=O)nc2)CC1 [Lerociclib (dihydrochloride)] (2 µM)	0
CCCCCCCCCCCCCCCCOP(=O)([O-])OCC[N+](C)(C)C [Miltefosine] (10 µM)	0
COCCNc1cc(NC(=O)N2CCCc3cc(CN4CCN(C)CC4=O)c(C=O)nc32)ncc1C#N [Roblitinib] (10 µM)	0
Cc1ccc(NC(=O)c2ccc(CN(CCN(C)C)C(=O)c3cccnc3)cc2)cc1Nc1nccc(-c2cccnc2)n1 [PDGFRα kinase inhibitor 1] (10 µM)	0
c1ccc(-c2nc(=NCCN3CCOCC3)sn2-c2ccccc2)cc1 [VP3.15 (dihydrobromide)] (10 µM)	0
O=C1NC(=Nc2c(Cl)cccc2Cl)S/C1=C\c1ccc2nccnc2c1 (2.5 µM)	0
Cc1cc(-c2ccnc(Nc3cnn(C)c3)n2)ccc1CNC(=O)N1CC(OC(C)C)C1 (10 µM)	0
CN(C)S(=O)(=O)c1ccc2c(c1)/C(=C/c1cc3c([nH]1)CCCC3)C(=O)N2 (2.5 µM)	0
Cc1cnc(NC2CCOCC2)nc1-n1cnc(C(=O)N[C@H](CN)c2cc(F)cc(Cl)c2)c1 (10 µM)	0
N#CC(c1ccnc(OCc2ccc(CN3CCOCC3)cc2)n1)c1nc2ccccc2s1 (stereo not drawn) [Bentamapimod] (2.5 µM)	0
Cc1c(-c2ccc(C(N)=O)c3[nH]c4cc(C(C)(C)O)ccc4c23)cccc1-n1cnc2ccccc2c1=O (2.5 µM)	0
CN(C)c1nc2c(Br)c(Br)c(Br)c(Br)c2[nH]1 (10 µM)	0
Nc1ncnc2c1c(-c1ccc(Oc3ccccc3)cc1)nn2C1CCN(CCOCCOCCOc2ccc3c(c2)CN(C2CCC(=O)NC2=O)C3=O)CC1 (stereo not drawn) (2.5 µM)	0
O=[N+]([O-])c1ccc(Nc2nc(N3CCOCC3)nc(N3CCOCC3)n2)cc1 (10 µM)	0
C[C@H](Nc1ncnc2[nH]cnc12)c1cc2ccc(F)cc2nc1-c1ccccn1 (10 µM)	0
CCc1cccc(CC)c1NC(=O)N1Cc2[nH]nc(NC(=O)c3ccc(N4CCN(C)CC4)cc3)c2C1 (2.5 µM)	0
CCc1cncnc1N1CCN(Cc2nc3ccc(C(F)(F)F)cc3[nH]2)CC1 (10 µM)	0
COc1cc(-c2cn[nH]c2)ccc1C(=O)Nc1ccc2c(c1)CCNCC2 (10 µM)	0
Cn1cc2cc(C(F)(F)c3nnc4ccc(-c5cnn(C6CC6)c5)nn34)c(F)cc2n1 [Bozitinib] (10 µM)	0
O=Nc1c2[nH]c3ccccc3nc-2c2ccccc12 [IQ-1S (free acid)] (2.5 µM)	0
CCN(CC)c1cc2oc(=O)c(-c3nc4ccccc4o3)cc2cc1C (2.5 µM)	0

An excerpt of the results above, as a working copy:
SMILES	number of time points
CCc1cccc(CC)c1NC(=O)N1Cc2[nH]nc(NC(=O)c3ccc(N4CCN(C)CC4)cc3)c2C1 (2.5 µM)	0
CCc1cncnc1N1CCN(Cc2nc3ccc(C(F)(F)F)cc3[nH]2)CC1 (10 µM)	0
